The text below walks through data of article PMC7216583 (Parasites & Vectors, 2020).

The assay deals with Toxoplasma gondii RH-2F tachyzoites. The assay is described as follows: microbe, parasite or virus in culture. As to conditions: 72 h, read-out: Parasite inhibition (%) mean.

For the compound `CCS(=O)(=O)N1CC(CC#N)(n2cc(-c3ncnc4[nH]ccc34)cn2)C1` [Baricitinib (LY3009104, INCB28050)], the inhibition of growth at 5 µM came out at 32.5%.
